According to the supplement of paper PMC10849652:
This is one part of the list.

Protein sequences, listed by entry. Tags and fused reporters are not part of them. Lines headed by an entry give the natural chain unless they say otherwise; changes in a name come on top.
UniProt Q6TDU7: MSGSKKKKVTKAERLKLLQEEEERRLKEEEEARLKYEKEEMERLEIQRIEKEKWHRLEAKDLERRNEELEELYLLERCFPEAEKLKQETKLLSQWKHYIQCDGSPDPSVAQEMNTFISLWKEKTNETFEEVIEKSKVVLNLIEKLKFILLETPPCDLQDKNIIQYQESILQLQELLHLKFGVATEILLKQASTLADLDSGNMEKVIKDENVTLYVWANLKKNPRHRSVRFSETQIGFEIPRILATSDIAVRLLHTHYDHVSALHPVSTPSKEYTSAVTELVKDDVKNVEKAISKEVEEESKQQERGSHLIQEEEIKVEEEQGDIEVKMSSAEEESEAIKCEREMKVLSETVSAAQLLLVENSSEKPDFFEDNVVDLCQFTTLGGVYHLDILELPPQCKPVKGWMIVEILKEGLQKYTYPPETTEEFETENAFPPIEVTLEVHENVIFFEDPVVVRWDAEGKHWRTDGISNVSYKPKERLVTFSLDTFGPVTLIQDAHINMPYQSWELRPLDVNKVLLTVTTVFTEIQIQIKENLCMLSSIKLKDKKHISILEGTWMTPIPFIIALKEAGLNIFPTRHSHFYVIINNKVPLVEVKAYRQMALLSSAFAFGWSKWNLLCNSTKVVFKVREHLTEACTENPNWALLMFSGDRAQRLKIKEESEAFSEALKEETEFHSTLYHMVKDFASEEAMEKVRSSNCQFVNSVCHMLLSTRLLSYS
UniProt P25942, whole entry, looked up: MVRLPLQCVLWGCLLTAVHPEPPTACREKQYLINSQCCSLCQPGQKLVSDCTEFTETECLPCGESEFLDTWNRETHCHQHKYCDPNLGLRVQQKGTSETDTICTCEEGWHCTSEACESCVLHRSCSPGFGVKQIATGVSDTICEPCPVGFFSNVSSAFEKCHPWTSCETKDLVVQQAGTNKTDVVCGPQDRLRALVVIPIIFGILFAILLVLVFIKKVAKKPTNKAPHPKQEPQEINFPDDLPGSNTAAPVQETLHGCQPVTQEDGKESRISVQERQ
UniProt Q14790: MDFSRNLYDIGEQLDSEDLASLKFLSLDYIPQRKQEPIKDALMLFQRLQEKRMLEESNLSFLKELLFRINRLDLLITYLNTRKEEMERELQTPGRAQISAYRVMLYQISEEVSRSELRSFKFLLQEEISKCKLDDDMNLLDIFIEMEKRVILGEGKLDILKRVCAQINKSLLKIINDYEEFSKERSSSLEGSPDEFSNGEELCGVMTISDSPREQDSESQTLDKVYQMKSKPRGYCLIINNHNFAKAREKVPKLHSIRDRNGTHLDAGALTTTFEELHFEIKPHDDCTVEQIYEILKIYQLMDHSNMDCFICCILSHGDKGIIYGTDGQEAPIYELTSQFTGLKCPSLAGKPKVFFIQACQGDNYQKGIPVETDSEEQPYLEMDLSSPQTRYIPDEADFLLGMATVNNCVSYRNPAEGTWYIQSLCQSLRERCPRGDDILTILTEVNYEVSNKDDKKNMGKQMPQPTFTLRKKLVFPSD
UniProt Q13951, whole entry, looked up: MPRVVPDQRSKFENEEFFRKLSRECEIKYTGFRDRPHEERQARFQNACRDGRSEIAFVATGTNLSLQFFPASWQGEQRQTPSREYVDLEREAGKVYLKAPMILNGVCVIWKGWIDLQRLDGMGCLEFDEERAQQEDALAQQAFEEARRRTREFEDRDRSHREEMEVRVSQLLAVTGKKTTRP
UniProt P30281: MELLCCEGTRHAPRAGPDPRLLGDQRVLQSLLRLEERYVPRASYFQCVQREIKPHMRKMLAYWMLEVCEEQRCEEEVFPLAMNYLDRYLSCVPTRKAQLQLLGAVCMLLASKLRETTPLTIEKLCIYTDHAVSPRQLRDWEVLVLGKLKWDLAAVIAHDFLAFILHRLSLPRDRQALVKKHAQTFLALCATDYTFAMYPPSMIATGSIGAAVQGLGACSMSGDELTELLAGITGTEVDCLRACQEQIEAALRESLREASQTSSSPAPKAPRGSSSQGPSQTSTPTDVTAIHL
UniProt Q8TD31: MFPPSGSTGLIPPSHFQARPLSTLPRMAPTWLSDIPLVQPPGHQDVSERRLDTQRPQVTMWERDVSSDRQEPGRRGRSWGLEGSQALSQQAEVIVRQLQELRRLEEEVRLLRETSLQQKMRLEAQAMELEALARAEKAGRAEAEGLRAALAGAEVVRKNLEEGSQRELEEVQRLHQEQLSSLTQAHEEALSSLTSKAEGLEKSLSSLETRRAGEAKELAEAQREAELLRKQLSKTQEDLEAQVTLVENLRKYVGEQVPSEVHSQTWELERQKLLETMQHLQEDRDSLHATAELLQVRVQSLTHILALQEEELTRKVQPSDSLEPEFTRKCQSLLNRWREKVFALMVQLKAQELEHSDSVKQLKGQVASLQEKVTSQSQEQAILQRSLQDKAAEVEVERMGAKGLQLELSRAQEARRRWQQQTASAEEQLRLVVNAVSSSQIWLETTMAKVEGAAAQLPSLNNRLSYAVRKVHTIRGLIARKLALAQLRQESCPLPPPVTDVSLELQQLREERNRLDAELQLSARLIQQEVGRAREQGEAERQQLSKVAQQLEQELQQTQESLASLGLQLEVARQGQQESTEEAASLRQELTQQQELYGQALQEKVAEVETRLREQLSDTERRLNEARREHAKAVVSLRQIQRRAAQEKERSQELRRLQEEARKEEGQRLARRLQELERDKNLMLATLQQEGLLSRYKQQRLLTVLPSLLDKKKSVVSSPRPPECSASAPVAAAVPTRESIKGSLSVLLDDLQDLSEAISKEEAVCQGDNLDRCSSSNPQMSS
UniProt P40259: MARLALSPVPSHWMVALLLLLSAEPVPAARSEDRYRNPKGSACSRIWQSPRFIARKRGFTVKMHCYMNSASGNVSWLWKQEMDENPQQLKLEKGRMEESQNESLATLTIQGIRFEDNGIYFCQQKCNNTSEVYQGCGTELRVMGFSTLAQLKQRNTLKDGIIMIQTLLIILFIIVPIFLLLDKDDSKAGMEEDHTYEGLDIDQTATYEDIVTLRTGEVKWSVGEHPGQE
UniProt Q92851: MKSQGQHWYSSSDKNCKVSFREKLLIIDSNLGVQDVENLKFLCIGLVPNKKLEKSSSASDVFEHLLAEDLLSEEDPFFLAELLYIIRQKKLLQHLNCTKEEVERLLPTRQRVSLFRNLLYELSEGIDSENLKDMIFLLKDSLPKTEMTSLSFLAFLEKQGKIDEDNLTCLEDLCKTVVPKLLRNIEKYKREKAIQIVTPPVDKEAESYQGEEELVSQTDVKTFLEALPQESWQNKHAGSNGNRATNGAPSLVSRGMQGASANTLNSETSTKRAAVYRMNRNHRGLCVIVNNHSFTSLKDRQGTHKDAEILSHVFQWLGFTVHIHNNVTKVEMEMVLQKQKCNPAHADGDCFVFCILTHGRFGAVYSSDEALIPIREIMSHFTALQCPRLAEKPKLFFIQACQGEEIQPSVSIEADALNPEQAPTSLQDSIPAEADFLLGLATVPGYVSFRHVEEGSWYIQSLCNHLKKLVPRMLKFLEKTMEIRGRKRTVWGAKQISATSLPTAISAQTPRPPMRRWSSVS

Key:
Assay in all cases: log2 fold change, soluble protein after heating vs DMSO (PISA); higher = thermal stabilisation; K562 lysate, 10 uM; active = over 0.2 and 3.5 SD of the protein, either way, in both replicates (recomputed)
[1] = compound: C1=CC=C(C=C1)[C@H](COC2=CC3=C(C=C2)NC(=O)N3)NC(=O)C4=CC=CN(C4=O)CC5=CC(=C(C=C5)F)F
In short: (§1)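 A 30 min treatment with 10 μM compound was applied to crude K562 extract at 1 mg/mL protein in PBS pH 7.4 with 1 mM MgCl2. Heating for 3 min spanned 48°C-58°C, after which aliquots were pooled, adjusted to 0.5% NP-40 at 4°C and spun at 21,000xg for 90 min. TMTpro 16plex LC-MS/MS of the supernatant, with channel sums equalised, gave values recorded as log-two fold change in thermal stability against solvent controls, from duplicates.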

[2] = compound: CC1=C(SC2=C1C(=N[C@H](C3=NN=C(N32)C)CC(=O)N)C4=CC=C(C=C4)Cl)C
In short: as §1

[3] = compound: c1ccc([C@@H]2C[C@H]2NC2CCNCC2)cc1
In short: as §1

[4] = compound: Cc1sc2c(c1C)C(c1ccc(Cl)cc1)=N[C@@H](CC(=O)OC(C)(C)C)c1nnc(C)n1-2
In short: as §1

[5] = compound: CC1=C2C(=CC=C1)N=C(N(C2=O)C3=CC=CC=C3C)CN4C=NC5=C(N=CN=C54)N
In short: as §1

Row | Target | log2 fold change [1] | log2 fold change [2] | log2 fold change [3] | log2 fold change [4] | log2 fold change [5]
1 | CASC1 (UniProt Q6TDU7) | inactive: -0.256 | inactive: 0.037 | inactive: 0.046 | – | –
2 | CD40 (UniProt P25942) | – | – | inactive: 0.199 | – | –
3 | CASP8 isoform 4 (UniProt Q14790) | inactive: -0.385 | inactive: -0.135 | – | inactive: 0.06 | –
4 | CBFB (UniProt Q13951) | inactive: 0.016 | inactive: 0.02 | inactive: 0.003 | inactive: -0.04 | –
5 | CCND3 (UniProt P30281) | inactive: 0.043 | inactive: 0.051 | inactive: -0.023 | inactive: 0.036 | –
6 | CCHCR1 isoform 2 (UniProt Q8TD31) | inactive: 0.151 | inactive: 0.179 | inactive: -0.15 | – | inactive: 0.037
7 | CD79B isoform 3 (UniProt P40259) | – | – | – | inactive: 0.283 | –
8 | CARHSP1 (UniProt H3BNU9) | inactive: -0.034 | inactive: -0.224 | inactive: 0.094 | – | –
9 | CASP10 isoform 2 (UniProt Q92851) | – | – | – | inactive: 0.1 | –
